Laboratory results as given in patent publication US20210380685A1.
No constants are given. Whether binding was seen depends on the method and setting. Some entries that bind do so weakly or less than the wild type.

Amino acid sequences for entries named in this document (tags omitted). Residues count along the entry.
UniProt P20273, residues 20-687: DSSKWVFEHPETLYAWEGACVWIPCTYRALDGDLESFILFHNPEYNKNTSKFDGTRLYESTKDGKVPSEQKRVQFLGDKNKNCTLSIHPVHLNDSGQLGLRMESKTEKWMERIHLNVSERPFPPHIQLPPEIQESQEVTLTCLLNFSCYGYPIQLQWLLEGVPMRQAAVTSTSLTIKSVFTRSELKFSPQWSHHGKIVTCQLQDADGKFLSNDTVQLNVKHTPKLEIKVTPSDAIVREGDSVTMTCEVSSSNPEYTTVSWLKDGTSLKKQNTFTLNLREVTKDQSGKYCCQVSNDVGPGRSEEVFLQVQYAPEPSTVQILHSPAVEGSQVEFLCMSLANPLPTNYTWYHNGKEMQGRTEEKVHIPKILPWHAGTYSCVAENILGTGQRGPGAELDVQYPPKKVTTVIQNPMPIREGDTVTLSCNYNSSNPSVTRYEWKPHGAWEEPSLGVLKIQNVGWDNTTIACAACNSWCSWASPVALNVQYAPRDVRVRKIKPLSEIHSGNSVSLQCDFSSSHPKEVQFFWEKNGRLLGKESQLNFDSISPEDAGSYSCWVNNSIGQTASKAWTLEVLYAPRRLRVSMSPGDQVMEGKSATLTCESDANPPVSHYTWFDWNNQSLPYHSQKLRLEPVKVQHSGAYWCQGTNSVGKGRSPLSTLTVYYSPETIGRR

Target: human recombinant CD22 (PeproTech) (human) (UniProt P20273)
Experiment: SPR (BIAcore), recombinant human CD22 immobilised on a CM5 chip, SM03 injected at 6 concentrations

B1: SM03 (antibody, V domains shown)
VH: QVQLQESGGGLVKPGGSLKLSCAASGFAFSIYDMSWVRQTPEKRLEWVAYISSGGGTTYYPDTVKGRFTISRDNAKNTLYLQMSSLKSEDTAMYYCARHSGYGSSYGVLFAYWGQGTLVTVSS
VL: DIQLTQTTSSLSASLGDRVTISCRASQDISNYLNWYQQKPDGTVKLLIYYTSILHSGVPSRFSGSGSGTDYSLTISNLEQEDFATYFCQQGNTLPWTFGGGTKLEIKR
Question: With B1 as the binder, how does the binding read?
Answer: The binding was “binds”.
